Laboratory results from doi:10.1101/359182.
The exact form of at least one protein or probe is not confirmed. No signal at the amounts used counts as a negative. At least one verdict rests on a figure or table, not on a statement of the authors. For some of these results: Tags and fusion partners may be left off the protein sequences shown. For some of these results: Weaker means in comparison with the reference protein, sequence or condition of that experiment.

The chains behind the UniProt entries cited, without tags or fusion partners. Where a name states a change or a piece, a line headed by the entry shows the natural chain unless it says otherwise.
UniProt Q94JM3: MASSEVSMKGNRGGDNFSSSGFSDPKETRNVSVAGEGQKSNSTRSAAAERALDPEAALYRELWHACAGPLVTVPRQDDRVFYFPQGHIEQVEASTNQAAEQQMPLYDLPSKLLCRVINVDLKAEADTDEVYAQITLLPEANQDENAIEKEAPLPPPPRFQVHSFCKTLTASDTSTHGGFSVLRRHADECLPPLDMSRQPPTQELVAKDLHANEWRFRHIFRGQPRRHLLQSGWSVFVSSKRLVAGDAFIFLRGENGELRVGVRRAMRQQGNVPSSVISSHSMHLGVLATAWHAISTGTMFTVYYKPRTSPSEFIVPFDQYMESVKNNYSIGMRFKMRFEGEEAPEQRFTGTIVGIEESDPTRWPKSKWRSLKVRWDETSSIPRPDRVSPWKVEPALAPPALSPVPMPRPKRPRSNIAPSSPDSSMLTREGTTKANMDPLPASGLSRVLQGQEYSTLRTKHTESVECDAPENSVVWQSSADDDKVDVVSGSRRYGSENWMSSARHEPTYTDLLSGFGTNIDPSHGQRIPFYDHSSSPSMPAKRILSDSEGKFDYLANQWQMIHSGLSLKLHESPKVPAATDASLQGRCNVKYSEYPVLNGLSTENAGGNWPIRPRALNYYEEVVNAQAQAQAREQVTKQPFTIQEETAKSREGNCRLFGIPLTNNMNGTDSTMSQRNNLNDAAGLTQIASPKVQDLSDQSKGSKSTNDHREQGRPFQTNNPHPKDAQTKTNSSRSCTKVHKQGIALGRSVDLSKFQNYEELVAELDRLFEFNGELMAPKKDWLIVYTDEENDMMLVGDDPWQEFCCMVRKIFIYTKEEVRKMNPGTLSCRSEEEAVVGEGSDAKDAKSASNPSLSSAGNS

Each sequence was assayed against T1, MP (ARF5/Monopteros) (UniProt P93024) (assay: EMSA).
T1 sequence (looked up, limits assumed): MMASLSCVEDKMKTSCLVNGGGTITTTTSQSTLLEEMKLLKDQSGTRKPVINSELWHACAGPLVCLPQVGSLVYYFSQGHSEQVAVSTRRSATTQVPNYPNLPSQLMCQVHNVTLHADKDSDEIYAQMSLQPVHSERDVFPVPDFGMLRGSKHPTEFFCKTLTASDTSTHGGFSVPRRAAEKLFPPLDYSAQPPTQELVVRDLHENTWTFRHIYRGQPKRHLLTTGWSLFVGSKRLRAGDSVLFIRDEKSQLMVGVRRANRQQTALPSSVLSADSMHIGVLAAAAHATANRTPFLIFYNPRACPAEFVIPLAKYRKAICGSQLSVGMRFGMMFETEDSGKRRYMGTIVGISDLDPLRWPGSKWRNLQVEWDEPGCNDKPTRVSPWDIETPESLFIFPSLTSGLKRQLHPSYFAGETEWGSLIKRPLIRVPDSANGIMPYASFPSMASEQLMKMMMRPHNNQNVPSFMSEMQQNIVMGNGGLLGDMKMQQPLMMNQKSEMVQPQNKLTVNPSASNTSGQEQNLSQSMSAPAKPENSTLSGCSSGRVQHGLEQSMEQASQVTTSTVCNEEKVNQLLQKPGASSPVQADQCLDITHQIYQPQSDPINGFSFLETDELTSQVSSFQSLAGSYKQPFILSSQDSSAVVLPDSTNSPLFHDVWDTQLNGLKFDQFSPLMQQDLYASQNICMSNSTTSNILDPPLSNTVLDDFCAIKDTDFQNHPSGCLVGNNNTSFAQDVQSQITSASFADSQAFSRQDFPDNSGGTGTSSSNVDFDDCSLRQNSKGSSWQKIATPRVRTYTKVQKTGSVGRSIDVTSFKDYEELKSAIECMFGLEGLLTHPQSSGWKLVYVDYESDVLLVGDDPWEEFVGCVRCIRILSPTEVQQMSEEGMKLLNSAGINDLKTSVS

Sequence	binding result
GATGCAGTCATGTGCCGACATGTCGGCATGTGCTCACAT (double strand) [IR0]	binds more weakly
GCAAACGGGTGTCATTCATGTGAATGACAACCGCATC (double strand) [ER8 WC/WC]	no binding
GCAAACTTATGTCTCTCATGTGACCGACAACCGCATC (double strand) [ER8 C/C]	binds
GCAAACTTATGTCTCTCATGTGACCGACCACCGCATC (double strand) [ER8 C/NC]	binds

Each sequence was assayed against ARF2 (UniProt Q94JM3) (assay: EMSA).

Sequence	binding result
GCAAACGGGTGTCATTCATGTGAATGACAACCGCATC (double strand) [ER8 WC/WC]	no binding
GCAAACTTATGTCTCTCATGTGACCGACAACCGCATC (double strand) [ER8 C/C]	binds
GCAAACTTATGTCTCTCATGTGACCGACCACCGCATC (double strand) [ER8 C/NC]	binds
